## Library screen at single concentrations

Source: ChEMBL document CHEMBL3988442, “University of Dundee, Small-Polar-MMV Screening Library” (2021).

T. brucei: 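Whole-parasite assay of Trypanosoma brucei over 72 hours; the read-out is not stated. Tested at 30 µM. The record gives no direction; compounds that gave an IC50 in retests scored well above the rest, so higher reads as stronger inhibition. Values scatter widely below zero; nearly all retest evidence comes from the higher of the two concentrations used. Of about 64,000 compounds tested this way, about 940 (1.5%) reached 50% or more in at least one test.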
Leishmania in macrophages: 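Cell assay of Leishmania donovani living inside macrophages; the read-out is not stated. Tested at 30 µM. The record gives no direction; compounds that gave an IC50 in retests scored well above the rest, so higher reads as stronger inhibition. About 69,000 compounds were tested under these conditions; 1.5% (about 1,000) showed 50% or more at least once.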

Each number is a percent effect as filed. The controls that fix the scale are not given in the record; negative values are as filed. Compounds were drawn at random from those tested, without regard to their results. Two or more numbers in one place are separate tests of the same structure; such repeats can differ widely. A dash means the value is not listed here; it may have been measured.

| compound | T. brucei | Leishmania in macrophages |
|---|---|---|
| `[H][C@@]12CCN(Cc3cccc(C)n3)CC[C@]1([H])[C@@H](COC)CNC2=O` | 22.51 | 16.79 |
| `Cc1nc(N(C)C)nc(NCCc2c[nH]cn2)c1C` | -8.355 | 20.35 |
| `O=C(NCCc1ccn(-c2ccc(F)cc2)n1)C1CCCO1` (stereo unspecified) | 99.62 | 31.84 |
| `Cc1nn(CC(=O)N2CCN(c3ccc(F)cc3)CC2)c(C)c1Cl` | - | -71.1 |
| `COc1c(C2CCCN2C(=O)c2sc(C)nc2C)c(C)nn1C` (stereo unspecified) | -34.8 | -19.95 |
| `Cc1ccc(C(=O)N2CCC(O)(CN3CCc4ccccc4C3)C2)s1` (stereo unspecified) | -17.18 | -13.41 & -7.965 |
| `CCc1cc(O)n2nc(C3CCN(C(=O)c4ccccn4)CC3)cc2n1` | 18.01 | 33.58 |
| `CC(Cn1ccnc1)NCc1n[nH]c2c1CCC2` (stereo unspecified) | -86.79 | 9.899 |
| `C=C/C=c1\c(=C/C)oc2c(NCc3ccccc3)nc(C)nc12` | -40.37 | 49.06 |
| `Cc1n[nH]c(=O)c2c(NC(=O)CN3CCC(O)CC3)oc(C)c12` | -52.08 | 5.475 |
| `N#Cc1ccccc1CN(CCO)Cc1ccsc1` | -32.74 | 3.17 & 15.81 |
| `Cc1nc(C)n(CC2CCCN(CCC(=O)Nc3cc(C)on3)C2)n1` (stereo unspecified) | -12.77 | 1.982 |
| `[H][C@@]12CCC(=O)N(c3ccccc3)[C@]1([H])CCN2C(=O)c1ccco1` | -28.29 | 39.74 |
| `Cn1ccc2c(-c3cc(N)nc(N4CCOCC4)n3)ccnc21` | 69.92 | 19.57 |
| `CCNc1ncc(C(=O)NC2CCSC2)cn1` (stereo unspecified) | -38.83 | 12.29 |
| `Cc1nc(CN2CCC3(CCCO3)CC2)c2ccccn12` | -6.481 | -2.589 |
| `[H][C@]12CN(C(=O)C3CCC3)C[C@@]1([H])C(=O)N(c1ccccc1)C2` | -19 | 1.663 |

The last 2 entries again:

compound,T. brucei,Leishmania in macrophages
Cc1nc(CN2CCC3(CCCO3)CC2)c2ccccn12,-6.481,-2.589
[H][C@]12CN(C(=O)C3CCC3)C[C@@]1([H])C(=O)N(c1ccccc1)C2,-19,1.663